# Some of the results follow. Some structures show a salt or complex split into parts, the way the source records it.
# Assay: blockers of MT1-MMP proenzyme processing, primary screen, HT1080 RFP-PRO-GFP cells, GFP/RFP fluorescence (AID 651647)
# Conditions: GFP/RFP ratio fluorescence, overnight, RFP expression control read, at 20 µM
# Outline: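 Read-out: GFP/RFP fluorescence ratio; Test system: RFP-PRO-GFP reporter HT1080 cells; Compound dosing: single-point 20 µM compound, 1% DMSO; Times: overnight compound exposure at 37 °C.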
row,Structure (SMILES),RFP signal change
1,O=[N+]([O-])c1cc([N+](=O)[O-])c(C(F)(F)F)c([N+](=O)[O-])c1O,4.75%
2,Cc1ccccc1NP(C)(=O)Nc1ccccc1C,3.41%
3,CP(=O)(Nc1ccc2c(c1)OCCO2)Oc1ccccc1 (stereo not drawn),3%
4,c1nnnn1CCn1cnnn1,-0.995%
5,CCOP(C)(=S)SCC(=O)NC(C)(CC)C(=O)O (stereo not drawn),2.48%
6,CC(C)C(=O)NC(Sc1ccccc1)C(Cl)(Cl)Cl (stereo not drawn),-0.567%
7,O=P(Nc1nccs1)(c1ccccc1)c1ccccc1,7.49%
8,CP(=O)(Nc1ccc(SC(F)(F)F)cc1)Oc1ccc(F)cc1 (stereo not drawn),-3.5%
9,O=C(OC1CN2CCC1CC2)c1cccc(Cl)c1 (stereo not drawn),3.73%
10,Cc1c(C(c2ccc3c(c2)OCO3)c2c(C)n(C)n(-c3ccccc3)c2=O)c(=O)n(-c2ccccc2)n1C.O=[N+]([O-])c1cc([N+](=O)[O-])c(O)c([N+](=O)[O-])c1,7.68%
11,Nc1ccc([As](=O)(O)c2ccc([N+](=O)[O-])cc2)cc1,2.27%
12,C(Cc1nn[nH]n1)Cc1nn[nH]n1,1.94%
13,O=[As](O)(c1ccccc1)c1ccc(O)cc1,0.528%
14,Cc1cc(-c2cccc3ccccc23)c(C)cn1.O=[N+]([O-])c1cc([N+](=O)[O-])c(O)c([N+](=O)[O-])c1,-8.44%
15,O=[N+]([O-])c1cc([N+](=O)[O-])c(NCC2CCS(=O)(=O)C2)c([N+](=O)[O-])c1 (stereo not drawn),-9.62%
16,O=[N+]([O-])c1ccc(O)c(/C=N/Nc2ccc([N+](=O)[O-])cc2[N+](=O)[O-])c1,-10.9%
17,CC(=O)NC(SC(=S)N(C)C)C(Cl)(Cl)Cl (stereo not drawn),2.14%
18,O=[N+]([O-])c1ccc(OP2(=O)COCCO2)cc1 (stereo not drawn),2.08%
19,O=[N+]([O-])c1ncn(CCn2cnc([N+](=O)[O-])n2)n1,5.07%
20,COc1ccc(NP(C)(=O)Oc2ccccc2OC)cc1 (stereo not drawn),1.07%
21,CN(C)CCOC(=O)C(O)(c1ccccc1)C1CCCCC1 (stereo not drawn),1.74%
22,O=P(Nc1nc2ccccc2s1)(c1ccccc1)c1ccccc1,4.24%
23,C[C@H]1OP(=O)(Oc2ccccc2)[C@H](O)[C@H](O)[C@H]1N=[N+]=[N-] (stereo partly drawn),-0.233%

row,Structure (SMILES),RFP signal change
1,O=P(Nc1ccccn1)(c1ccc(Br)cc1)c1ccc(Br)cc1,-25.9%
2,CN(C)C1(CNC(=O)c2ccc(Cl)c(S(N)(=O)=O)c2)CCCCC1,-0.126%
3,COc1ccc(OP(C)(=O)Nc2cccc(Br)c2)cc1 (stereo not drawn),5.85%
4,COc1ccc(N)c([N+](=O)[O-])c1[N+](=O)[O-],-4.11%
5,Cc1ccccc1OP(=O)(Nc1ccccn1)Oc1ccccc1C,-3.93%
6,CC(NC(=O)COC(=O)C(O)(c1ccccc1)c1ccccc1)c1ccccc1 (stereo not drawn),-2.16%
7,CN(C)C(=O)Oc1noc2ccccc12,0.533%
8,CCCCCOc1ccc(NP(C)(=O)Oc2ccc(Cl)cc2Cl)cc1 (stereo not drawn),1.89%
9,O=c1c2cc([N+](=O)[O-])ccc2[nH]c2c([N+](=O)[O-])cc([N+](=O)[O-])cc12,-53.8%
10,O=[N+]([O-])c1cc([N+](=O)[O-])c(OC2CCCCC2O)c([N+](=O)[O-])c1 (stereo not drawn),-6.82%
11,CP(=O)(Nc1ccccc1)Oc1ccc(F)cc1 (stereo not drawn),-0.854%
12,O=C(OC1CN2CCC1CC2)c1ccccc1 (stereo not drawn),0.148%
13,CCN(CC)CCCOC(=O)C(O)(c1ccccc1)C1CCCCC1 (stereo not drawn),0.812%
14,CCC(=O)N1C2C3N(C(=O)CC)C1C1N(C(=O)CC)C(C(N1C(=O)CC)N3C(=O)CC)N2C(=O)CC,2.55%
15,Cc1c([N+](=O)[O-])cc([N+](=O)[O-])c(Br)c1[N+](=O)[O-],-2.6%
16,COC(=O)c1cc2c(s1)N=C(c1ccccc1)N(C)P2(=O)N1CCOCC1 (stereo not drawn),8.48%
17,CC(=O)NC(SC(=S)N(CC(C)C)CC(C)C)C(Cl)(Cl)Cl (stereo not drawn),3.43%
18,Cc1ccc(OP(=O)(Nc2ccccn2)Oc2ccc(C)cc2)cc1,-13.2%
19,COc1ccc(OP(C)(=O)Nc2ccc(SC(F)(F)F)cc2)cc1 (stereo not drawn),-6.79%
20,O=P1(N(CCCl)CCCl)OCCC2CCCCN21 (stereo not drawn),3.37%
21,CCOC(=O)c1ccc(NP(C)(=O)Oc2ccc(F)cc2)cc1 (stereo not drawn),4.51%
22,c1ccc(-c2nn[nH]n2)c(-c2nn[nH]n2)c1,1.47%
23,Cc1ccc(NP(=O)(Oc2cccc(C)c2)Oc2cccc(C)c2)nc1,0.275%

row,Structure (SMILES),RFP signal change
1,CCN(CC)CCCNc1ccccc1[N+](=O)[O-].O=[N+]([O-])c1cc([N+](=O)[O-])c(O)c([N+](=O)[O-])c1,5.52%
2,CCNC(=S)/N=C(\N)N[N+](=O)[O-],1.14%
3,O=C(NC1CCS(=O)(=O)C1)NP(=S)(Oc1ccccc1)Oc1ccccc1 (stereo not drawn),-1.23%
4,COc1ccc2c(c1O)-c1c(O)c(OC)cc3c1[C@H](C2)[N+](C)(C)CC3.O=[N+]([O-])c1cc([N+](=O)[O-])c([O-])c([N+](=O)[O-])c1[O-],8.36%
5,CC(=O)Nc1ccc([As](=O)(O)O)c(O)c1,2.46%
6,CC(=O)Nc1ccc(Oc2c([N+](=O)[O-])cc([N+](=O)[O-])cc2[N+](=O)[O-])cc1,3.75%
7,O=C(OCCN1CCN(CCOCc2ccccc2)CC1)C(O)(c1ccccc1)c1ccccc1,-1.03%
8,C[C@@H]1C=CCP(=O)(Oc2ccccc2)O1 (stereo partly drawn),4.03%
9,C[C@H]1OP(=O)(Oc2ccccc2)C[C@@H]2O[C@@H]21 (stereo partly drawn),4.33%
10,N#C/C(=C\c1ccc(N(CCBr)CCBr)cc1)C(N)=O,4.89%
11,CC(=O)c1ccc(N2CC2c2ccncc2)cc1 (stereo not drawn),-3.26%
12,COC(=O)C1(C)COP(=O)(NCc2ccccc2)OC1 (stereo not drawn),5.05%
13,CC(C)(C)C(=O)NC(Sc1ccccc1)C(Cl)(Cl)Cl (stereo not drawn),-4.37%
14,CC(C)c1ccc(OP(C)(=O)Nc2ccc(SC(F)(F)F)cc2)cc1 (stereo not drawn),-3.71%
15,CCc1cc(O)c([N+](=O)[O-])c(C)c1[N+](=O)[O-],-0.129%
16,CP(=O)(Nc1ccccc1F)Oc1ccccc1 (stereo not drawn),8.29%
17,O=P1(Nc2nc3ccc(Cl)cc3s2)COc2ccccc2O1 (stereo not drawn),1.32%
18,O=[N+]([O-])c1cc([N+](=O)[O-])c(Nc2ccc(Cl)cc2)c([N+](=O)[O-])c1,-17%
19,CCOc1ccc(C2=NCC(CBr)S2)cc1 (stereo not drawn),-2.93%
20,CCc1ccc(OP(C)(=O)O)cc1,-1.88%
21,O=[N+]([O-])C1C(O)C(O)C([N+](=O)[O-])C(O)C1O (stereo not drawn),4.47%
22,CP(=O)(Nc1ccccn1)Oc1ccccc1 (stereo not drawn),2.8%
23,COc1ccccc1OP(C)(=O)Nc1ccc(C)cc1C (stereo not drawn),8.4%

row,Structure (SMILES),RFP signal change
1,Oc1ccccc1CNc1ccccn1,-4.49%
2,O=C(NC(Sc1ccncn1)C(Cl)(Cl)Cl)c1ccccc1 (stereo not drawn),3.14%
3,CC(C)CC(=O)NC(Sc1ccc(Cl)cc1)C(Cl)(Cl)Cl (stereo not drawn),-4.21%
4,O=[N+]([O-])c1cc([N+](=O)[O-])c(Nc2ccccn2)c([N+](=O)[O-])c1,-6.13%
5,Cc1c(NP(C)(=O)Oc2ccc(C(C)C)cc2)c(=O)n(-c2ccccc2)n1C (stereo not drawn),1.31%
6,Nc1cc(N)c2nonc2c1[N+](=O)[O-],1.75%
7,Clc1ccc(Cl)c(NC2=NCC(CBr)S2)c1 (stereo not drawn),7.01%
8,CN(C)CCOC(=O)C(O)(c1ccccc1)C1CCCC1 (stereo not drawn),-1.77%
9,CN1CCCC(OC(=O)C(c2ccccc2)c2ccccc2)C1 (stereo not drawn),-0.00756%
10,COc1ccc(OP(C)(=O)Nc2ccccn2)cc1 (stereo not drawn),7.02%
11,COc1ccccc1OP(=O)(Nc1ccc(C)cn1)Oc1ccccc1OC,0.238%
12,Cc1ccc(OP(=O)(Nc2nccs2)Oc2ccc(C)cc2)cc1,0.317%
13,COc1ccccc1OP(C)(=O)Nc1ccc(Br)cc1 (stereo not drawn),-1.31%
14,CN(C(=O)Cc1ccc(Cl)c(Cl)c1)[C@H]1CCCC[C@H]1N1CCCC1,-1.44%
15,Cc1ccc(N/C(=N/P(=O)(N2CCOCC2)N2CCOCC2)N2CCOCC2)cc1,-4.94%
16,NC(=O)c1cc([N+](=O)[O-])cc([N+](=O)[O-])c1N,-1.28%
17,Nc1cccc2ccc([As](=O)(O)O)cc12,20.5%
18,CP(=O)(OCCOc1ccccc1)OCCOc1ccccc1,-1.52%
19,CCCCCCCCCCCCCCCC1C[N+](C)(C)CCOP(C)(=O)O1 (stereo not drawn),-18.6%
20,CP(=O)(Nc1ccc(Cl)cc1Cl)Oc1ccccc1 (stereo not drawn),5.66%
21,CCN(N=Nc1nonc1N)c1nonc1N,0.715%
22,COc1ccc(OP(C)(=O)Nc2ccccc2Br)cc1 (stereo not drawn),1.86%
23,CCOP(=O)(Nc1ccccc1)OCC,0.51%

row,Structure (SMILES),RFP signal change
1,Cc1cc(SC(NC(=O)c2ccc(F)cc2)C(Cl)(Cl)Cl)ncn1 (stereo not drawn),2.14%
2,Cc1ccc(NP(=O)(Oc2ccccc2F)Oc2ccccc2F)nc1,2.6%
3,CN(C(=O)Cc1ccc(Cl)c(Cl)c1)[C@H]1CCCC[C@@H]1N1CCCC1,5.89%
4,COc1ccccc1OP(C)(=O)Nc1ccc(C)c(C)c1 (stereo not drawn),1.35%
5,O=C1C(O)=C([N+](=O)[O-])C(=O)C(O)=C1[N+](=O)[O-],-0.671%
6,Cc1cc(C)cc(OP(C)(=O)Nc2cccc(C(F)(F)F)c2)c1 (stereo not drawn),5.28%
7,CN(C)P(=O)(N(C)C)n1c(Nc2ccccc2)nnc1-c1ccccc1,-6.19%
8,O=P(Nc1nc2ccc(Cl)cc2s1)(c1ccccc1)c1ccccc1,-4.91%
9,O=C(O)c1ccccc1[As](=O)(O)O,1.64%
10,CC(=O)Nc1ccc([As](=O)(O)O)cc1,6.94%
11,CCCC1OP(N)(=O)OCC1CC (stereo not drawn),4.95%
12,O=C(O)CNc1ccc([As](=O)(O)O)cc1,1.17%
13,O=[N+]([O-])c1cccc(NC2=NCC(CBr)S2)c1 (stereo not drawn),1.67%
14,COC(=O)C1(C)COP(=O)(Nc2ccccc2)OC1 (stereo not drawn),-0.406%
15,O=[N+]([O-])c1ncn(CCn2ncnc2[N+](=O)[O-])n1,-6.3%
16,CC(C)(C)C(=O)NC(Sc1ccncn1)C(Cl)(Cl)Cl (stereo not drawn),-2.63%
17,CP(=O)(OC12CC3CC(CC(C3)C1)C2)OC12CC3CC(CC(C3)C1)C2,-6.84%
18,CCOC(=O)c1ccc(NP(C)(=O)Oc2ccc(Cl)cc2)cc1 (stereo not drawn),-2.63%
19,O=C(Nc1cc([As](=O)(O)O)ccc1O)c1ccccc1,1.34%
20,O=P1(N(CCCl)CCCl)OCCCS1 (stereo not drawn),1.83%
21,c1cc(-c2nn[nH]n2)ccc1-c1nn[nH]n1,5.09%

# — PubChem BioAssay AID651647 (Sanford-Burnham Center for Chemical Genomics, 2012)
